Measurements reported in PubChem BioAssay AID686938 (Drosophila RNAi Screening Center, 2013)

- Test: 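Fly genes required for calcium entry once internal stores are emptied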 (primary screen)
- System: Drosophila S2R+ cells
- Reagent: long dsRNA against Drosophila genes, about 0.25 µg dsRNA per well, roughly 10,000 cells
- Time to read-out: 5 days of knock-down before the calcium assay
- Conditions: thapsigargin (SERCA pump blocker) to empty calcium stores; entry signal taken 4 min after adding it
- Detection: 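Duplicate raw fluo-4 intensities per well from a plate reader, at rest and four minutes after thapsigargin emptied calcium stores; entry-to-rest ratio filled for only some wells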
- Scale: calcium entry signal: higher = stronger calcium signal after store depletion; entry to resting ratio: higher = more calcium entry relative to resting level; resting calcium signal: higher = higher resting calcium signal
- Units: calcium entry signal in fluorescence units; resting calcium signal in fluorescence units
- Hit rule: 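Called when the plate z-score of the entry-to-rest ratio, mean of duplicates, falls below −3; wells with low overall dye signal (Fmax z below −2) or more than five off-targets excluded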
- Meaning of the calls: active = strongly reduced calcium entry; inactive = no strong reduction
The screen tested about 23,000 reagents; this is an unselected part of those that have a named target and a result. In the full data, 75 (0.33%) were called active. 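Raw plate signals without normalisation; calls rest on plate z-scores that were not deposited; ratio present for only 364 wells.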 A number with no mark means an inactive call. Not given: the dose of the treatment.

| predicted target | DRSC id | calcium entry signal, replicate 1 | calcium entry signal, replicate 2 | entry to resting ratio | resting calcium signal, replicate 1 | resting calcium signal, replicate 2 |
| --- | --- | --- | --- | --- | --- | --- |
| CG3386 (GeneID 38081) | DRSC08566 | 3.48e7 | 4.15e7 | – | 1.76e7 | 1.81e7 |
| Jon99Fii (GeneID 43621) | DRSC15430 | 3.02e7 | 4.51e7 | – | 1.65e7 | 1.91e7 |
| CG30471 (GeneID 246633) | DRSC07096 | 2.92e7 | 2.84e7 | – | 1.32e7 | 1.31e7 |
| Stim (GeneID 32556) | DRSC20158 | 2.19e7 (active) | 1.87e7 | – | 1.78e7 | 1.45e7 |
| CG8202 (GeneID 41043) | DRSC16396 | 4.16e7 | 3.24e7 | – | 1.98e7 | 1.57e7 |
| CG15387 (GeneID 33403) | DRSC00401 | 3.49e7 | 3.59e7 | – | 1.60e7 | 1.67e7 |
| CG34199 (GeneID 5740128) | DRSC05867 | 3.48e7 | 3.72e7 | – | 1.67e7 | 2.15e7 |
| Pp2A-29B (GeneID 2768940) | DRSC03400 | 2.64e7 | 4.70e7 | – | 1.31e7 | 2.03e7 |
| eIF1A (GeneID 44260) | DRSC16937 | 1.53e7 | 1.55e7 | – | 1.12e7 | 9.84e6 |
| SelT (GeneID 33725) | DRSC02732 | 3.85e7 | – | – | 2.03e7 | – |
| Csk (GeneID 41398) | DRSC12861 | 3.54e7 | 3.89e7 | – | 1.61e7 | 1.86e7 |
| Csk (GeneID 41398) | DRSC15223 | 3.05e7 | 3.30e7 | – | 1.36e7 | 1.59e7 |
| Csk (GeneID 41398) | DRSC23272 | 4.86e7 | 3.93e7 | – | 2.31e7 | 1.80e7 |
| Dtg (GeneID 41558) | DRSC15998 | 3.94e7 | 4.63e7 | – | 1.69e7 | 2.04e7 |
| Rok (GeneID 43916) | DRSC20277 | 3.50e7 | 3.94e7 | – | 1.84e7 | 1.75e7 |
| Rok (GeneID 43916) | DRSC23348 | 3.67e7 | 4.40e7 | – | 1.93e7 | 2.20e7 |
| Ggt-1 (GeneID 32839) | DRSC19993 | 3.85e7 | 3.57e7 | – | 1.74e7 | 1.71e7 |
| CG31097 (GeneID 43058) | DRSC14666 | 3.49e7 | 4.56e7 | – | 1.90e7 | 2.05e7 |
| TMEM216 (GeneID 41035) | DRSC16378 | 4.50e7 | 4.05e7 | – | 2.28e7 | 1.80e7 |
| GstE10 (GeneID 37105) | DRSC06671 | 4.48e7 | 5.36e7 | – | 2.16e7 | 2.53e7 |
| CG34232 (GeneID 5740195) | DRSC05332 | 4.39e7 | 5.64e7 | – | 1.73e7 | 2.29e7 |
| CG14219 (GeneID 32951) | DRSC19576 | 3.50e7 | 4.62e7 | – | 1.96e7 | 2.20e7 |
| CG42694 (GeneID 10178792) | DRSC03955 | 2.91e7 | 5.68e7 | – | 1.42e7 | 2.27e7 |
| CG32333 (GeneID 38142) | DRSC08627 | 2.84e7 | 2.97e7 | – | 1.35e7 | 1.43e7 |
| CG32333 (GeneID 38142) | DRSC08629 | 3.24e7 | 3.96e7 | – | 1.64e7 | 1.71e7 |
| CG14803 (GeneID 31142) | DRSC18556 | 6.75e7 | 5.78e7 | 2.2 | 3.04e7 | 2.23e7 |
| CG32369 (GeneID 38873) | DRSC10042 | 3.49e7 | 4.27e7 | – | 1.82e7 | 2.20e7 |
| CG32369 (GeneID 38873) | DRSC10834 | 5.28e7 | 4.27e7 | – | 3.66e7 | 1.87e7 |
| CG10512 (GeneID 40339) | DRSC11615 | 3.21e7 | 5.16e7 | – | 1.52e7 | 2.25e7 |
| CG18659 (GeneID 35929) | DRSC06784 | 7.28e7 | 4.59e7 | – | 3.94e7 | 2.00e7 |
| Cyp6a8 (GeneID 36666) | DRSC07384 | 3.97e7 | 3.86e7 | – | 1.94e7 | 1.82e7 |
| Cyp6a14 (GeneID 35835) | DRSC07376 | 4.57e7 | 4.28e7 | – | 2.12e7 | 1.87e7 |
| CG14499 (GeneID 37086) | DRSC06470 | 5.06e7 | 4.20e7 | – | 2.17e7 | 1.97e7 |

Records above whose gene name starts with G or g (2):
| predicted target | DRSC id | calcium entry signal, replicate 1 | calcium entry signal, replicate 2 | entry to resting ratio | resting calcium signal, replicate 1 | resting calcium signal, replicate 2 |
| --- | --- | --- | --- | --- | --- | --- |
| Ggt-1 (GeneID 32839) | DRSC19993 | 3.85e7 | 3.57e7 | – | 1.74e7 | 1.71e7 |
| GstE10 (GeneID 37105) | DRSC06671 | 4.48e7 | 5.36e7 | – | 2.16e7 | 2.53e7 |

More reagents follow.
| predicted target | DRSC id | calcium entry signal, replicate 1 | calcium entry signal, replicate 2 | entry to resting ratio | resting calcium signal, replicate 1 | resting calcium signal, replicate 2 |
| --- | --- | --- | --- | --- | --- | --- |
| ND2 (retired record) (GeneID 192474) | DRSC21274 | 4.23e7 | 3.20e7 | – | 2.40e7 | 1.63e7 |
| CG5112 (GeneID 43083) | DRSC15718 | 4.04e7 | 5.27e7 | – | 1.72e7 | 2.14e7 |
| Octbeta3R (GeneID 3885573) | DRSC15351 | 4.24e7 | 3.69e7 | – | 2.22e7 | 1.95e7 |
| Octbeta3R (GeneID 3885573) | DRSC16191 | 4.31e7 | 4.21e7 | – | 2.25e7 | 2.24e7 |
| Octbeta3R (GeneID 3885573) | DRSC21853 | 2.38e7 | 4.77e7 | – | 1.24e7 | 2.13e7 |
| Octbeta3R (GeneID 3885573) | DRSC21902 | 3.50e7 | 5.72e7 | – | 1.65e7 | 2.83e7 |
| Octbeta3R (GeneID 3885573) | DRSC22350 | 3.35e7 | 4.18e7 | – | 1.50e7 | 2.17e7 |
| CG6567 (GeneID 41304) | DRSC16066 | 4.06e7 | 3.50e7 | – | 2.02e7 | 1.83e7 |
| Ns2 (GeneID 36989) | DRSC06993 | 2.86e7 | 2.28e7 | – | 1.28e7 | 1.17e7 |
| Pdf (GeneID 43193) | DRSC16786 | 5.46e7 | 3.22e7 | – | 2.52e7 | 1.58e7 |
| Cdc45 (GeneID 31052) | DRSC17747 | 3.80e7 | 3.81e7 | – | 1.77e7 | 1.98e7 |
| Cdc45 (GeneID 31052) | DRSC18164 | 5.05e7 | 5.41e7 | 2.2 | 2.32e7 | 2.11e7 |
| Setx (GeneID 38904) | DRSC10859 | 3.62e7 | 3.43e7 | – | 1.83e7 | 1.55e7 |
| CG17490 (GeneID 3355125) | DRSC03794 | 2.27e7 | 4.82e7 | – | 1.18e7 | 1.99e7 |
| CG17490 (GeneID 3355125) | DRSC03797 | 5.47e7 | 5.49e7 | – | 2.77e7 | 2.28e7 |
| Mau2 (GeneID 41830) | DRSC15550 | 3.71e7 | 5.37e7 | – | 1.59e7 | 2.24e7 |
| CG13594 (GeneID 37940) | DRSC04229 | 4.72e7 | 4.23e7 | – | 2.33e7 | 2.01e7 |
| CG13594 (GeneID 37940) | DRSC23254 | 3.01e7 | 4.59e7 | – | 1.71e7 | 1.94e7 |
| CG4854 (GeneID 42391) | DRSC15663 | 2.84e7 | 3.19e7 | – | 3.48e7 | 1.40e7 |
| CG6425 (GeneID 43216) | DRSC16038 | 4.26e7 | 4.37e7 | – | 2.01e7 | 2.01e7 |
| CG16888 (GeneID 34789) | DRSC02541 | 4.26e7 | 2.49e7 | – | 1.90e7 | 1.22e7 |
| Atg12 (GeneID 39383) | DRSC09803 | 3.07e7 | 3.79e7 | – | 1.57e7 | 1.66e7 |
| CG6418 (GeneID 39218) | DRSC10633 | 2.94e7 | 2.44e7 | – | 2.14e7 | 9.46e6 |
| CG17026 (GeneID 39739) | DRSC10237 | 2.03e7 | 4.69e7 | – | 1.23e7 | 2.34e7 |
| CG5644 (GeneID 39029) | DRSC10531 | 3.84e7 | 3.98e7 | – | 1.86e7 | 1.84e7 |
